Assay results as given in PubChem BioAssay AID1487 (National Center for Advancing Translational Sciences (NCATS), 2009).
About 25 (0.01%) of roughly 200,000 compounds were called active. This list was built around the results that the source calls inconclusive (neither active nor inactive); the mix of calls is not that of the screen. Calls follow the shape of the dose curve; as a rule, active = well fitted inhibition curve with a large enough effect in the signal ratio, with a control signal flat (not every such curve was filed as active); inconclusive = small, poorly fitted or top-dose-only effect, or effect the other way, or a change in a side signal; inactive = flat fitted curve, though single readings scatter; the % refers to the signal ratio. A potency beside an inconclusive call is a rough fit, not a confirmed value.

Experiment: qHTS Assay for Modulators of Lamin A Splicing
Details: HeLa LMNA splicing GFP/RFP minigene ratio, 48 h; ratio change, negative = inhibition: at 46.1 µM (top of the series) unless noted
Procedure, shortened: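 S3 HeLa stable clones carrying a lamin A-EGFP splicing minigene plus DsRed2 were seeded at 600 cells/well in Opti-MEM with 2% FBS, pin-dosed and incubated 48 h at 37°C. Acumen cytometry (488 nm) gave the GFP/RFP total-intensity ratio.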
% is scaled to controls: 0 for no effect and ±100 for the full control effect; potency is read from the fitted curve at half-maximal effect.

| Compound | ratio change, negative = inhibition | Potency |
| --- | --- | --- |
| O=C(NCc1ccccn1)C1CCN(Cc2cccc(OCc3ccccc3)c2)CC1 | inconclusive: 4.49% |  |
| O=C(Cn1ncc(Cl)c(Cl)c1=O)c1ccc(Cl)cc1 | inconclusive: -42.6% |  |
| NNc1nc2c(-c3ccc(Cl)cc3)nnn2c2ccccc12 | inconclusive: -29.4% [at 46 µM] |  |
| CN(C(=O)CSc1nc2ccc(NC(=O)c3ccccc3)cc2s1)c1ccccc1 | inconclusive: -3.95% [at 46 µM] |  |
| Cc1ccc(NC(=O)CCCc2ccccc2)nc1 | inconclusive: 28.1% [at 46 µM] |  |
| Cc1sc2ncn3ncnc3c2c1C | inconclusive: 33.1% |  |
| COC(=O)c1cn(C(=O)c2ccco2)c2ccccc12 | inactive: 3.67% |  |
| CCOc1ccc(CCNC(=O)CCn2c(=O)c3cccn3c3ccc(F)cc32)cc1 | inactive: -5.88% [at 46 µM] |  |
| CCN(CC)c1ccc(NC2=C(Cl)C(=O)c3ccccc3C2=O)cc1 | inconclusive: 95.6% |  |
| COc1c(Br)cc(C(N)=O)cc1OCc1ccccc1 | inconclusive: 0.769% |  |
| Cc1ccc(S(=O)(=O)N(C)C)cc1NC(=O)CSc1ncc(C(F)(F)F)cc1Cl | inconclusive: -14.8% |  |
| CCOC(=O)CC(=O)CSc1nc(-c2ccccc2)cc(-c2ccc(Cl)cc2)c1C#N | inconclusive: 3.19% |  |
| Cc1onc(-c2ccccc2Cl)c1C(=O)Nc1ccc(F)c(F)c1 | inconclusive: -24.5% |  |
| CCn1c(SCC(=O)Nc2nccs2)nnc1-c1cc2cccc(OC)c2o1 | inactive: 7.87% |  |
| O=C(CC1CCS(=O)(=O)C1)Nc1ccc[nH]c1=O (configuration not stated) | inactive: -7.82% |  |
| O=C(CSc1ccc(Cl)cc1)Nc1cccc(-c2nc3ncccc3o2)c1 | inconclusive: 37.2% |  |
| CSc1ccc(S(=O)(=O)Nc2ccc(F)cc2)cc1 | inactive: -2.06% |  |
| CCOC(=O)Cn1c(=NC(=O)c2cc(-c3cccs3)nc3ccccc23)sc2cc(S(N)(=O)=O)ccc21 | inactive: 0.0804% |  |
| O=C(NC1CCCC1)c1ccc(CSc2nc3cccnc3n2Cc2ccccc2F)cc1 | inactive: -20.2% [at 46 µM] |  |

| Compound | ratio change, negative = inhibition | Potency |
| --- | --- | --- |
| COc1ccccc1NC(=O)c1sc(NC(=O)c2ccco2)c(C#N)c1C | inactive: 21.5% |  |
| CCc1ccc2[nH]c(=O)c(C(c3nnnn3CC3CCCO3)N3CCCc4ccccc43)cc2c1 (configuration not stated) | inactive: 8.59% |  |
| O=C(Cn1c(-c2cccs2)cc2ccccc21)NCCCN1CCN(c2ccc(F)cc2)CC1 | inactive: -6.91% [at 46 µM] |  |
| CCOC(=O)c1cc(NC(=O)Nc2nccs2)c(C)nc1C | inconclusive: 2.83% |  |
| Cc1cc(C)c(NS(=O)(=O)c2ccc3c(c2)NC(=O)CCS3)c(C)c1 | inconclusive: -22.3% [at 46 µM] |  |
| Cc1c(I)c(=O)n(-c2ccccc2)n1C | inconclusive: -28.6% |  |
| O=C(/C=C/c1cccs1)Nc1scc(-c2ccccc2)c1C(=O)O | inactive: -2.35% [at 9.22 µM] |  |
| BrC(=C\c1ccccc1)/C=N/n1cnnc1 |  | inconclusive: 1.12 µM [inhibitor, partial curve] |
| COc1ccc(CCNC(=O)CSc2ncnc3c2oc2ccccc23)cc1OC | inconclusive: 7.65% |  |
| CCCCSc1ccc2nc(-c3ccc(C#N)cc3)cn2c1 | inactive: 12.3% |  |
| O=C(Nc1ccc2ccccc2c1)c1cn(-c2ccccc2)nc1-c1cccs1 | inconclusive: 5.32% [at 0.0737 µM] |  |
| O=C(N/N=C/c1ccccc1OC(F)F)c1cc(-c2ccncc2)nc2ccccc12 | inconclusive: -43.2% [at 46 µM] |  |
| COc1ccc(-c2csc(Cc3nnc4n3CCCCC4)n2)cc1OC | inconclusive: 18.1% |  |
| COc1cc([N+](=O)[O-])ccc1-c1ccc(C(=O)Nc2ccc(NC(C)=O)cc2)o1 | inactive: -18.7% |  |
| CC(=O)Cc1nsc(NC(=O)c2ccc(-c3ccc(F)cc3)o2)n1 | inconclusive: -20.9% [at 46 µM] |  |
| Cc1ccc(NC(=O)Cn2cccc2)c(C)c1 | inactive: 9.62% |  |
| Cc1ccc(-c2cnc(SCC(=O)N3CCCc4ccccc43)n2C)cc1 |  | inconclusive: 35.5 µM [fluorescent, single point] |
| COc1ccc(-c2coc3cc(OC)cc(O)c3c2=O)cc1 | inconclusive: 17.4% |  |
| NCCNS(=O)(=O)c1cccc2c(Cl)cccc12 | inactive: 17.7% |  |

| Compound | ratio change, negative = inhibition | Potency |
| --- | --- | --- |
| Cc1ccc(Cl)cc1N1CCN(C(=O)c2cnc3c(-c4ccc(F)cc4)c(C)nn3c2C)CC1 | inactive: 2.41% [at 46 µM] |  |
| COc1cccc(/C=N\NC(=O)C2C(=O)NCC2c2ccccc2)c1O (configuration not stated) | inactive: -22% |  |
| Cc1ccc(C2CC(=O)N3CN(c4ccc(Br)cc4)CSC3=C2C#N)o1 (configuration not stated) | inconclusive: 31.8% |  |
| COc1ccc(CNC(=O)Cn2c(=O)c3cccn3c3ccccc32)cc1 | inconclusive: -6.5% [at 46 µM] |  |
| Cc1oc(-c2ccc3c(c2)OCCO3)cc1C(=O)O | inactive: 7.69% |  |
| Cc1cc(NC(=O)CCC(=O)N(CC(=O)NC2CCCC2)Cc2ccc3c(c2)OCO3)no1 | inactive: 19.1% [at 46 µM] |  |
| O=C(Nc1c(C(=O)N2CCN(c3ccccc3F)CC2)oc2ccccc12)c1ccco1 | inconclusive: -44.6% [at 46 µM] |  |
| COc1ccc(-n2nc3cc(C)c(N)c(Br)c3n2)cc1 | inconclusive: 25.3% |  |
| O=C(C1CC1)N1CCCN(C(=O)C2CC2)CC1 | inactive: 1.58% |  |
| O=C(N/N=C/c1cccnc1)c1cccc(S(=O)(=O)Nc2cccc(Cl)c2)c1 | inactive: -21.2% [at 46 µM] |  |
| Cc1ccc(C(=O)NC(=S)Nc2ccccc2C(F)(F)F)c(C)c1 | inactive: -1.75% |  |
| O=C(CCNS(=O)(=O)c1cccc2nsnc12)NC1CCCc2ccccc21 (configuration not stated) | inactive: -5.36% |  |
| CN(C)c1ccc(/C=[N+](\[O-])C2N(c3ccccc3)C(=S)SC2(C)C)cc1 (configuration not stated) | inactive: 0.426% |  |
| CCOC(=O)N1CCN(C(=O)c2ccc3c(=O)n(CCC4=CCCCC4)c(=S)[nH]c3c2)CC1 | inactive: 1.31% |  |
| COc1ccc(CNC(=O)CSc2n[nH]c(-c3ccc(F)cc3)n2)cc1 | inconclusive: -8.85% [at 46 µM] |  |
| COc1ccc(CNC(=O)C(CCSC)NS(=O)(=O)c2ccc3c(c2)oc(=O)n3C)cc1 (configuration not stated) | inconclusive: 32.3% [at 46 µM] |  |
| CCOC(=O)c1sc(NC(=O)CCCCl)nc1C | inactive: 19.8% |  |
| COc1ccc(C(=O)NNC(=S)NC(=O)c2ccccc2[N+](=O)[O-])cc1 | inconclusive: -33.5% |  |
| O=[N+]([O-])c1cccc(-c2csc(Nc3ccccc3)n2)c1 | inconclusive: -29.8% [at 46 µM] |  |

As entered above.
Value for `O=C(C1CC1)N1CCCN(C(=O)C2CC2)CC1` under ratio change, negative = inhibition: inactive: 1.58%
Value for `Cc1oc(-c2ccc3c(c2)OCCO3)cc1C(=O)O` under ratio change, negative = inhibition: inactive: 7.69%
